{
  "source": "paper doi:10.1101/2023.02.23.529587",
  "about": "(bioRxiv, 2023)",
  "binders": {"B1": {"name": "M. smegmatis GarA (protein, UniProt A0QYG2 1-158)", "chain": "MTDKDSNLGADQSEDVTVETTSVFRADFLNELDAPAAAGTEGAVSGVEGLPSGSALLVVKRGPNAGSRFLLDQPTTSAGRHPDSDIFLDDVTVSRRHAEFRLEGGEFQVVDVGSLNGTYVNREPVDSAVLANGDEVQIGKFRLVFLTGPKSDDSGSNA"}},
  "target": "T1, full-length KGD from Mycobacterium smegmatis (Mycobacterium smegmatis) (UniProt A0R2B1)",
  "T1 sequence": "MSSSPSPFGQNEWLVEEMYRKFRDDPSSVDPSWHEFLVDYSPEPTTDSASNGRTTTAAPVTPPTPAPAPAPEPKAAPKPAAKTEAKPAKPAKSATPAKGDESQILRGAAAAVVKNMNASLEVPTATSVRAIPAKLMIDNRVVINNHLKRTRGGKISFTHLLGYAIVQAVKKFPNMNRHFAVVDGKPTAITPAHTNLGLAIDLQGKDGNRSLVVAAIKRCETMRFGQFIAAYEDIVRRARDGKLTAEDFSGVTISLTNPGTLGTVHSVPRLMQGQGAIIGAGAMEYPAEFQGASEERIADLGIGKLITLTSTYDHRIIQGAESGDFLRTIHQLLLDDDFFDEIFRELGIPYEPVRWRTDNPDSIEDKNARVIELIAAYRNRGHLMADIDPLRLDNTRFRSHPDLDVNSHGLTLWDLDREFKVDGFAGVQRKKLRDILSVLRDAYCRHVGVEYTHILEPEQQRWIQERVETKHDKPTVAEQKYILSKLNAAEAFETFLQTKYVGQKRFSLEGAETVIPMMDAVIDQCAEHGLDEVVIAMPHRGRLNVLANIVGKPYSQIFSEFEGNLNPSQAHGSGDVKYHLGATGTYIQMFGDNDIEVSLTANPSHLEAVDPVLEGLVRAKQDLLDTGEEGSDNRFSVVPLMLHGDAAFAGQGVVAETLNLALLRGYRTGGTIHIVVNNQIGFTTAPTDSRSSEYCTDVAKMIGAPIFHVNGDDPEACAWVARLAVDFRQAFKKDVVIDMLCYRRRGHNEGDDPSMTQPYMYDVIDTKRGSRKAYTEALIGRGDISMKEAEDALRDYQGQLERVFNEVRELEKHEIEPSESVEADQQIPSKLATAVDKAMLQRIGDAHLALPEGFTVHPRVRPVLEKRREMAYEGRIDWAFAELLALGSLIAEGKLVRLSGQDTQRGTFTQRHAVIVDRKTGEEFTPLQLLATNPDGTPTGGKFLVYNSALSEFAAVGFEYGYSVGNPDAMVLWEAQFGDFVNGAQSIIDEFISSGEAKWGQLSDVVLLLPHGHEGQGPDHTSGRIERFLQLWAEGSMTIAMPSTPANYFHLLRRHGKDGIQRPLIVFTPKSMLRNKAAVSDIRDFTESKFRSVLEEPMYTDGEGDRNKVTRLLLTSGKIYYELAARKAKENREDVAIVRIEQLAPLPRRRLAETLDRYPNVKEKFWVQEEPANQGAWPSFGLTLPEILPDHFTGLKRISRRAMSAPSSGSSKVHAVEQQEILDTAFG",
  "experiment": "crystal structure",
  "note": "Results are given in words; binding and its absence hold for the method and conditions named. Some entries that bind do so weakly or less than the wild type. Where a sequence is shown, tags or fusion partners need not be part of it.",
  "data": [
    {"binder": "B1", "values": [
      {"measurement": "binding", "value": "binds"}
    ]}
  ]
}
